# From publication PMC9119314 (Frontiers in Pharmacology, 2022)
# Some ranges recur; such a range may be that of the whole group of compounds.
# Legend:
# [1] = tested on: DNA; set-up: method as in Onyeibor et al., 2005; details: values below 5°C indicate non-specific binding to DNA; ref Onyeibor et al., 2005; cited from earlier work
# [2] = tested on: P. falciparum K1; experiment: In vitro antiplasmodial activity, P. falciparum K1 (lactate dehydrogenase assay); format: cell-based, Plasmodium falciparum; details: relative to 1
# Method: P. falciparum (K1 clone) was maintained in human erythrocytes prepared from the donated blood samples (blood groups unknown, Ethical Tissue, University of Bradford), suspended in the RPMI 1640 medium as previously described ([Wright et al., 2001]), except that serum was replaced with Albumax II, [5% (^w/v)]. […] Twofold serial dilutions were made in 96-well microtiter plates in duplicate, and infected erythrocytes were added to give a final volume of 100 µL with 2.5% hematocrit and 1% parasitemia. Chloroquine diphosphate was used as a positive control, and uninfected and infected erythrocytes without compounds were included in each test. The plates were placed into a modular incubator; gassed with 93% nitrogen, 3% oxygen, and 4% carbon dioxide; and incubated at 37°C for 48 h. The parasite growth was assessed by measuring lactate dehydrogenase activity as described by [Makler et al. (1993)]. The reagent used contained the following in each mL: acetylpyridine adenine dinucleotide (APAD), 0.74 mg; lithium lactate, 19.2 mg; diaphorase, 0.1 mg; Triton X-100, 2 μL; nitroblue tetrazolium, 1 mg; and phenazine ethosulphate, 0.5 mg. Fifty microliter of this reagent was added to each well and mixed; plates were incubated for 15 min at 37°C. The optical densities were read at 550 nm using an Azure 96-well microplate reader (Azure Biosystems Inc.), and % inhibition of growth was calculated by comparison with the control values. IC50 values were determined using linear regression analysis (Microsoft Excel). A minimum of three separate determinations was carried out for each compound.
compound,measurement,setting,value
"Cn1c2c3ccccc3nc-2cc2ccccc21 [Compound 1, cryptolepine]",ΔTm (DNA thermodenaturation),[1],9 °C
"C[n+]1c2ccccc2cc2[n-]c3ccc(Br)cc3c21 [Compound 3, 7-Bromocryptolepine]",Fold more potent than 1 against P. falciparum K1,[2],1.8-3 fold
"C[n+]1c2ccccc2cc2[n-]c3ccc(I)cc3c21 [Compound 5, 7-iodocryptolepine]",Fold more potent than 1 against P. falciparum K1,[2],1.8-3 fold
"C[n+]1c2ccccc2cc2[n-]c3c(I)cc(I)cc3c21 [Compound 6, 7,9-diiodocryptolepine]",Fold more potent than 1 against P. falciparum K1,[2],1.8-3 fold
